From PubChem BioAssay AID1671190 (National Center for Advancing Translational Sciences (NCATS), 2021)
Screen size: about 580,000 compounds; about 6,100 (1.1%) were called active. The inconclusive results got no clear call from the source; some entries with a clear call stand among them for comparison. The call rests on the fitted dose curve; in most records, active means well fitted inhibition curve with a large enough effect; inconclusive means small, poorly fitted or top-dose-only effect, or another doubt; inactive means no such curve, though single readings can be large or run the other way. Potencies beside an inconclusive call are fits to weak or partial responses and may not hold up.

Protein sequences, listed by entry. Tags and fused reporters are not part of them. Lines headed by an entry give the natural chain unless they say otherwise; changes in a name come on top.
UniProt P18054: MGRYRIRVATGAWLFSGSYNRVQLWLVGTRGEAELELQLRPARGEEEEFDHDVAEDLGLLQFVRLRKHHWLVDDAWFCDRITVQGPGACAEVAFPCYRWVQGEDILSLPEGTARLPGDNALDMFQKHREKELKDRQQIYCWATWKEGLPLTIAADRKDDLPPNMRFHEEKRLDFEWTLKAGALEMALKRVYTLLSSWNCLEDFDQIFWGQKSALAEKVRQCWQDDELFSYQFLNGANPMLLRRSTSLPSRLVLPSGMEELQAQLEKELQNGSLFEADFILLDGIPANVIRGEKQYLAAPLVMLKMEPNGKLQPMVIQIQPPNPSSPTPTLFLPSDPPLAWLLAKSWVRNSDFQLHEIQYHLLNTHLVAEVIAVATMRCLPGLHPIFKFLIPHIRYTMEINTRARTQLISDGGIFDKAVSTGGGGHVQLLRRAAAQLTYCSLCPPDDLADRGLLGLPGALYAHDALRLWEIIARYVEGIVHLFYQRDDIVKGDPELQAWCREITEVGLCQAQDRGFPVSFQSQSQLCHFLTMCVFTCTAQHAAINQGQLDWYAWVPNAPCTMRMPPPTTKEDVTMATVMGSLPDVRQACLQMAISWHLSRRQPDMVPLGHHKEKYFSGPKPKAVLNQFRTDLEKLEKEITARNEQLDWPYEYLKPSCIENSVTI

Each compound was assayed against Polyunsaturated fatty acid lipoxygenase ALOX12 (Homo sapiens) (UniProt P18054) (assay: Primary qHTS assay for inhibitors of human arachidonate 12S-lipoxygenase (ALOX12): Round 2). Conditions: purified 12hLO, xylenol orange hydroperoxide absorbance; activity change, negative = inhibition: at 108 µM (top of the series) unless noted.
Outline: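 Hydroperoxide product was detected by ferrous iron/xylenol orange as the 573 to 405 nm absorbance ratio. Arachidonic acid at 40 uM (final) was turned over for 30 min at room temperature by 150 nM human 12hLO, pH 7.0 Hepes buffer, after 15 min compound preincubation.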
On the % scale 0 is the no-effect control and ±100 the full control effect; potency means the concentration at half of the fitted maximal effect.

Row | Compound | Potency | activity change, negative = inhibition
1 | COc1cccc(CNCc2ccco2)c1 | inconclusive: 0.794 µM [inhibitor, full curve, poor fit] | 
2 | Cn1cc(-c2ccc(F)c(Cl)c2)c2nc(CN3CC[S+](=O)([O-])CC3)cn2c1=O | inconclusive: 7.08 µM [inhibitor, full curve, poor fit] | 
3 | CN1OC(C)(CC(=O)Nc2ccccc2)N=C1c1ccc(Br)cc1 (configuration not stated) | inconclusive: 44.7 µM [inhibitor, partial curve, poor fit] | 
4 | O=C(Nc1ccccc1)O[C@@H]1CO[C@H]2[C@@H]1OC[C@@H]2NC(=O)c1ccc(C(F)(F)F)cc1 | inconclusive: 22.4 µM [inhibitor, single point] | 
5 | Cc1cccc(-c2cc(Nc3ccc(C)c(C)c3)nc(C)n2)c1 | inconclusive: 17.8 µM [inhibitor, full curve] | 
6 | Cc1noc(C)c1COc1ccc(C(=O)Nc2ccccc2)cc1 | inactive | 
7 | C=CCn1c(Cc2ccccc2)nc2c(cnn2-c2ccccc2)c1=O | inconclusive: 39.8 µM [inhibitor, partial curve] | 
8 | Cc1ccc(Cn2ccn3nc4c(c3c2=O)CCCC4)cc1 |  | inactive: 10.6%
9 | CN(C)S(=O)(=O)c1ccc(C(=O)NNc2nc(-c3ccccc3)c3cc(Br)ccc3n2)cc1 |  | inactive: 16.2%
10 | N[C@]1(C(=O)O)CCc2cc(P(=O)(O)O)ccc21 | inconclusive: 3.98 µM [inhibitor, full curve, poor fit] | 
11 | CCOC(=O)C1=C(CS(=O)(=O)c2ccc(F)cc2)NC(=O)NC1c1ccc(O)c(O)c1 (configuration not stated) | inconclusive: 31.6 µM [inhibitor, partial curve, poor fit] | 
12 | CCN(CC)CCn1c(=S)[nH]c2cc(C(=O)NCc3ccccc3)ccc2c1=O | inconclusive: 158 µM [inhibitor, single point] | 
13 | COc1ccccc1NS(=O)(=O)c1cc(NC(=O)COc2ccccc2F)ccc1N1CCOCC1 | inconclusive: 50.1 µM [inhibitor, partial curve, poor fit] | 
14 | CC1(C)OC(c2ccccc2)=C/C(=C/C=C(C#N)C#N)O1 | inconclusive: 79.4 µM [inhibitor, single point] | 
15 | Cc1ccc(N2C(=O)CN(Cc3sccc3C)C2=S)cc1C |  | inactive: 18.7%
16 | CCCCc1c(-c2ccccc2OC)ncn1Cc1ccccc1 |  | inactive: -28.5%
17 | CC(C)CCC(CCNCc1ccccn1)c1ccc(Cl)cc1 (configuration not stated) | inconclusive: 56.2 µM [inhibitor, single point] | 
18 | CC(=O)c1cccc(C#Cc2ccccc2)c1 |  | inactive: -62%
19 | Cc1cccc(NC(=S)NNC(=O)C(c2ccccc2)c2ccccc2)c1C | inconclusive: 44.7 µM [inhibitor, partial curve, poor fit] | 
20 | COCC(=O)NC[C@H]1O[C@@H](CO)[C@@H](O)[C@H]1N1CCC(C)CC1 | inconclusive: 39.8 µM [inhibitor, partial curve, poor fit] | 
21 | CC(=O)Nc1ccc(NC(=O)C(NC(=O)c2ccc(Cl)cc2)C(C)C)cc1 (configuration not stated) | inconclusive: 79.4 µM [inhibitor, partial curve, poor fit] | 

Grouped by structure: the entries above containing bromine.
Row | Compound | Potency | activity change, negative = inhibition
3 | CN1OC(C)(CC(=O)Nc2ccccc2)N=C1c1ccc(Br)cc1 (configuration not stated) | inconclusive: 44.7 µM [inhibitor, partial curve, poor fit] | 
9 | CN(C)S(=O)(=O)c1ccc(C(=O)NNc2nc(-c3ccccc3)c3cc(Br)ccc3n2)cc1 |  | inactive: 16.2%

(listing goes on)

Row | Compound | Potency | activity change, negative = inhibition
22 | Cc1cc(C(=O)N2CCC(N3CCCC(C(=O)NCCc4ccccc4)C3)CC2)n[nH]1 (configuration not stated) | inconclusive: 56.2 µM [inhibitor, partial curve, poor fit] | 
23 | Cc1c(NC(=S)NC(=O)c2ccc(Br)o2)c(=O)n(-c2ccccc2)n1C | inconclusive: 50.1 µM [inhibitor, partial curve, poor fit] | 
24 | CN(C)CCCN(C(=O)c1ccc2c(c1)OCCO2)c1nc2ccccc2s1 | inconclusive: 112 µM [inhibitor, partial curve, poor fit] | 
25 | N/C(=N\OC(=O)CC1CCCCC1)c1ccc([N+](=O)[O-])cc1 |  | inactive: -0.361%
26 | O=C(Cn1nc(-c2ccco2)ccc1=O)Nc1ccc(Cl)c(Cl)c1 | inconclusive: 31.6 µM [inhibitor, partial curve, poor fit] | 
27 | COc1ccc(-c2noc3ncnc(N4CCC(C(=O)NCCN5CCCCC5)CC4)c23)cc1 | inconclusive: 112 µM [inhibitor, single point] | 
28 | O=C(Nc1nnc(C2CC2)s1)C1CC(c2ccccc2)=NO1 (configuration not stated) |  | inactive: 9.42%
29 | CCCCCCCCS(=O)(=O)CCSc1cccc2cccnc12 |  | inactive: 6.09%
30 | CCOC(=O)C1=C(CN2CCN(C(=O)OCC)CC2)NC(=O)NC1c1cccc(OC)c1OC (configuration not stated) |  | inactive: -11.9%
31 | C=CCN1C(=O)/C(=C/c2ccc(O)c(OC)c2)S/C1=N/c1nccs1 |  | inactive: -24.1%
32 | CCOc1ccccc1NC(=O)Cn1cc(C(=O)c2ccc(Cl)cc2)c(=O)c2ccc(C)nc21 | inconclusive: 141 µM [inhibitor, partial curve, poor fit] | 
33 | CN(CC(=O)Nc1ccccc1Br)C(=O)CCc1nc2ccccc2c(=O)[nH]1 | inconclusive: 44.7 µM [inhibitor, partial curve, poor fit] | 
34 | CC(C)CCN1C(=O)c2cccc3c(N)ccc(c23)C1=O |  | inactive: 0%
35 | Cc1ncccc1OC1(C(=O)NCc2cn3c(n2)SCC3)CCNCC1 | inconclusive: 3.55 µM [inhibitor, full curve, poor fit] | 
36 | CC1(C)CC(=O)C=C(c2n[nH]nc2-c2ccc(F)c(F)c2)C1 | inconclusive: 28.2 µM [inhibitor, single point] | 
37 | Cc1ccc(-n2c(C)cc(/C=N/NC(N)=S)c2C)cc1 | active: 44.7 µM | 
38 | O=C(NCc1cccs1)c1ccc2sc([C@@H]3O[C@H](CO)[C@H](O)[C@H](O)[C@H]3O)nc2c1 | inconclusive: 5.01 µM [inhibitor, full curve, poor fit] | 
39 | O=C(CCCCCn1c(=S)[nH]c2ccc(N3CCOCC3)cc2c1=O)NCc1cccc(Cl)c1 |  | inactive: -19.4%
40 | CN(C)CCCNC(=O)c1cc(C(=O)Cc2ccccc2)c[nH]1 | inconclusive: 5.01 µM [inhibitor, full curve, poor fit] | 
41 | CCCS(=O)(=O)N1CCN(C2CCN(CCOC)C2=O)CC1 (configuration not stated) | inconclusive: 2.82 µM [inhibitor, full curve, poor fit] | 
42 | O=C(NCc1cccnc1)c1ccc(CN2C(=O)CCn3nccc32)cc1 |  | inactive: -3.98%
